# According to the supplement of paper PMC10849652:
# By UniProt entry, the sequences of proteins in these tests, tags left out. Where a name states a change or a piece, a line headed by the entry shows the natural chain unless it says otherwise.
# UniProt Q8N9N7: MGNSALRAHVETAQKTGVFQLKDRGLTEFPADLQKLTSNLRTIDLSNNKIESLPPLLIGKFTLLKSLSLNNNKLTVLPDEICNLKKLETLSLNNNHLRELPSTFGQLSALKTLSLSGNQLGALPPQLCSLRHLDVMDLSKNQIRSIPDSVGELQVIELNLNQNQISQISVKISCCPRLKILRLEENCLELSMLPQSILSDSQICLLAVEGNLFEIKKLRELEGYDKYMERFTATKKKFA
# UniProt Q14657: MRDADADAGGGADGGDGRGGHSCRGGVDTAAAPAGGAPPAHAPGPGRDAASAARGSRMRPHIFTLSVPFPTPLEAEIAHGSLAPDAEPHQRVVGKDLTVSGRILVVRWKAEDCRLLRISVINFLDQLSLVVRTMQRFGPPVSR
# UniProt P07195, whole entry, looked up: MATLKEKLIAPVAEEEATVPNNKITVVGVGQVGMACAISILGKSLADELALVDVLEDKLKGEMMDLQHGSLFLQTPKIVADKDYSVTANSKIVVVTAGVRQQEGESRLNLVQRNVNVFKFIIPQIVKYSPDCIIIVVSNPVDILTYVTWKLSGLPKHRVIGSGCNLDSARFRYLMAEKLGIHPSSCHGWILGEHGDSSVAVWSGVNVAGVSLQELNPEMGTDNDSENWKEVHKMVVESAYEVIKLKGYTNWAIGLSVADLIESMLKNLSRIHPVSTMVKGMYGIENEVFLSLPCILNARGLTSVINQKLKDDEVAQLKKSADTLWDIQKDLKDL
# UniProt P09382, whole entry, looked up: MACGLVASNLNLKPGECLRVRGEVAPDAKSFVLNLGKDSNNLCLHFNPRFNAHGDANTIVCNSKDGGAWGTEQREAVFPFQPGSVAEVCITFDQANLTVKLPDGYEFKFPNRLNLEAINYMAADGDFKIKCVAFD
# UniProt O94898: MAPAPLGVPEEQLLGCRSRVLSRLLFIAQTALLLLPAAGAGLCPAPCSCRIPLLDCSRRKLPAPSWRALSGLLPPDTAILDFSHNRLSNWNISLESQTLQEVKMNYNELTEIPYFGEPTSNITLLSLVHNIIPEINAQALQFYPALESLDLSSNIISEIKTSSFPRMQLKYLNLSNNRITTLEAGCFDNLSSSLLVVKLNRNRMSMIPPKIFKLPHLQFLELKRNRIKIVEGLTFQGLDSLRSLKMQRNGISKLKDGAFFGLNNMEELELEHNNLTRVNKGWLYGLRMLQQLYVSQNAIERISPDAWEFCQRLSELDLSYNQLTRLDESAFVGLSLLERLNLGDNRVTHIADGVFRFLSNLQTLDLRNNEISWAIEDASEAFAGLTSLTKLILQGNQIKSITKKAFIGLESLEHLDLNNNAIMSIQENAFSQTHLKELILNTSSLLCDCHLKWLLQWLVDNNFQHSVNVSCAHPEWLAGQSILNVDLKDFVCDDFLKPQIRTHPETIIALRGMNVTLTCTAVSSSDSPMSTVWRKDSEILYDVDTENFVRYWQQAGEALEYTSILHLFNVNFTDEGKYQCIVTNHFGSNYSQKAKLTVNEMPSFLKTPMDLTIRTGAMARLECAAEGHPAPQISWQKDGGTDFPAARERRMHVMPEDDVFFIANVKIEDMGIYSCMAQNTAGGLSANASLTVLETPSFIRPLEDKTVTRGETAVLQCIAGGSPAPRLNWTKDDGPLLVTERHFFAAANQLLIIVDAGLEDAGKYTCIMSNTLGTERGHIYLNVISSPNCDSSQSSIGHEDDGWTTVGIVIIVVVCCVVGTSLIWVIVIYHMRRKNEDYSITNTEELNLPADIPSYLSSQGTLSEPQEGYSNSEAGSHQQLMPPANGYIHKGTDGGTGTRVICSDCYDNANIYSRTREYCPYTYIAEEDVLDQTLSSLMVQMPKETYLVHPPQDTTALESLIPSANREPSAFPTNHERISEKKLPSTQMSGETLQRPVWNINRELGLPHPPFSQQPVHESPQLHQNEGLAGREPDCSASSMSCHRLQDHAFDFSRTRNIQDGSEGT
# UniProt P25791: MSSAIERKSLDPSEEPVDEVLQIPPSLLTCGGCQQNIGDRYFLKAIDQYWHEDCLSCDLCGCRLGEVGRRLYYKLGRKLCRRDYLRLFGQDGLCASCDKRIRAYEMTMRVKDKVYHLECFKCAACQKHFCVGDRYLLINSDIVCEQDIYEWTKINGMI
# UniProt Q9H6V9: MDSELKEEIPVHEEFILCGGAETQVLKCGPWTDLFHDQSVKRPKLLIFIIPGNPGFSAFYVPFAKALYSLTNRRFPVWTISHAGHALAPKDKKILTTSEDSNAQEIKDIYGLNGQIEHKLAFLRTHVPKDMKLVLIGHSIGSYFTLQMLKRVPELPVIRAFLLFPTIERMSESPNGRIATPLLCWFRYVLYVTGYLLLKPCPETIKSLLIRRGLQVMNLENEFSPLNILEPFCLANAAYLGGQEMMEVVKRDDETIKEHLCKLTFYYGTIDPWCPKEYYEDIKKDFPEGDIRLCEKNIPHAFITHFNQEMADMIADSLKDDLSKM
# UniProt Q9UHB6: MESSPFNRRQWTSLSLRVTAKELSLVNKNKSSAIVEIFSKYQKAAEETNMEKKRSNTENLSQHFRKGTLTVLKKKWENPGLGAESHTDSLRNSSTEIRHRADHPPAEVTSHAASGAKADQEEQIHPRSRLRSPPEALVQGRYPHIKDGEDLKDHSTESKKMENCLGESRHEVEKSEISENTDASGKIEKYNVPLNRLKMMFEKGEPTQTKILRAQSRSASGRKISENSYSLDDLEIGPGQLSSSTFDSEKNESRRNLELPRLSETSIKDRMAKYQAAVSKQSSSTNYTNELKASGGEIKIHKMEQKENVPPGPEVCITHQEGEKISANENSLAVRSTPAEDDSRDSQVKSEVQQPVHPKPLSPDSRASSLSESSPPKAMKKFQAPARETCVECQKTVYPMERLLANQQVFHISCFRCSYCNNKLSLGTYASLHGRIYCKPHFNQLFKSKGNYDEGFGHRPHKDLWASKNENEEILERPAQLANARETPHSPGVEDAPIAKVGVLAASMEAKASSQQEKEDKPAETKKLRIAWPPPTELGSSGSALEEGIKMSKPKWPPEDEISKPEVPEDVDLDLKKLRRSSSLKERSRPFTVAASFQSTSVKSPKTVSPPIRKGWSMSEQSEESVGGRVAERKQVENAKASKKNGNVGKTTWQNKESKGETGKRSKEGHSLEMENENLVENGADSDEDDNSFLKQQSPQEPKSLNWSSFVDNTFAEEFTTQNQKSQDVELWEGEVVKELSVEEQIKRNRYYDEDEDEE
# UniProt Q9NUP9: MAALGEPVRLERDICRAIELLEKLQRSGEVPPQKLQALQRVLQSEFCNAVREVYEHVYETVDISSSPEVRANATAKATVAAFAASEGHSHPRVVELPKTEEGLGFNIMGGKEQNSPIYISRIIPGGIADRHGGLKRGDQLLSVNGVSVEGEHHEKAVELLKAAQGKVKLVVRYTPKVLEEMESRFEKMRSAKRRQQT
# UniProt P48059, whole entry, looked up: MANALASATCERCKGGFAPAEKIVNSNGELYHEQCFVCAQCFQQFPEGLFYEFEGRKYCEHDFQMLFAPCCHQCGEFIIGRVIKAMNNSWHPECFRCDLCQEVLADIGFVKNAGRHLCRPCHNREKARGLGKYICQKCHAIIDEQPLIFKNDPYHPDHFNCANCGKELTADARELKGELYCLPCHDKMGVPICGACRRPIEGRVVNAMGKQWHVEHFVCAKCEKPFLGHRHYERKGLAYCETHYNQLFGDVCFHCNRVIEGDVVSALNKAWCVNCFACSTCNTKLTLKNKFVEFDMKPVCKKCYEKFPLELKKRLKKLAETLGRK
# UniProt Q8NF37: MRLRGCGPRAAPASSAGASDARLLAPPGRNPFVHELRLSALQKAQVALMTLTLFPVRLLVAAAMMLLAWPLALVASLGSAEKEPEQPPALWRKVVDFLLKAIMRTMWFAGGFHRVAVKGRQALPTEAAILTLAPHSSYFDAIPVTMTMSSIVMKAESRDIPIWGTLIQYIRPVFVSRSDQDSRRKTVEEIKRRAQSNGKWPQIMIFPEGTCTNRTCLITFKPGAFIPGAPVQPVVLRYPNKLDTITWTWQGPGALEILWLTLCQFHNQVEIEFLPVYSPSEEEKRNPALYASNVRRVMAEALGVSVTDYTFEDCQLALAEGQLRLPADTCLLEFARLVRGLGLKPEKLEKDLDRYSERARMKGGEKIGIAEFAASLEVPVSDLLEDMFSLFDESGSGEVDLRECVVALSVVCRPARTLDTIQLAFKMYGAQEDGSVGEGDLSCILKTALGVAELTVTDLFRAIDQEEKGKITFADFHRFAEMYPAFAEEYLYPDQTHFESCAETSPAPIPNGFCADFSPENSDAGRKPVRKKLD
# UniProt Q96EM0: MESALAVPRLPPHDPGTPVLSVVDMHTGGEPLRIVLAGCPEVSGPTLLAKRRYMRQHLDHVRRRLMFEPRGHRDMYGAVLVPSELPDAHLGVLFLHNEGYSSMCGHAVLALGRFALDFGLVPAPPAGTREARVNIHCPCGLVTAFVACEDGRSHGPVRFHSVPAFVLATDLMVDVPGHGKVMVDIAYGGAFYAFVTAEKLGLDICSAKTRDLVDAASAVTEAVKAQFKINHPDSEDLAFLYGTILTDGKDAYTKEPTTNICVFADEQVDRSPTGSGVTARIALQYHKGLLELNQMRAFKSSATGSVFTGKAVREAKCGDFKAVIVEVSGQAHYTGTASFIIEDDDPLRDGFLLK
# UniProt P28838: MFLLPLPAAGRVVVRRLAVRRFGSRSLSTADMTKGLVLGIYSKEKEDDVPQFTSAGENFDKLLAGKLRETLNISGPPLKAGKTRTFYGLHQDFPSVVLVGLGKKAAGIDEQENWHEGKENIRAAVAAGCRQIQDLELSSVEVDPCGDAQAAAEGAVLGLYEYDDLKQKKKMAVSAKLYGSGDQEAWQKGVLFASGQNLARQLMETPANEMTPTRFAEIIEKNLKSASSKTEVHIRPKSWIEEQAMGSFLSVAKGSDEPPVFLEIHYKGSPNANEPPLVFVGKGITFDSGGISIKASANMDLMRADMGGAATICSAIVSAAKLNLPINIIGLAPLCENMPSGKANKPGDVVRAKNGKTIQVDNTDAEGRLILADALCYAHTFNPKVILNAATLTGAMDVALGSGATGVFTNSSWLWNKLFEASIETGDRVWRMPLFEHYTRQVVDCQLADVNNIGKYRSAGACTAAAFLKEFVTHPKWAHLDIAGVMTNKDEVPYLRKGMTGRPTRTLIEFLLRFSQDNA
# UniProt P48357: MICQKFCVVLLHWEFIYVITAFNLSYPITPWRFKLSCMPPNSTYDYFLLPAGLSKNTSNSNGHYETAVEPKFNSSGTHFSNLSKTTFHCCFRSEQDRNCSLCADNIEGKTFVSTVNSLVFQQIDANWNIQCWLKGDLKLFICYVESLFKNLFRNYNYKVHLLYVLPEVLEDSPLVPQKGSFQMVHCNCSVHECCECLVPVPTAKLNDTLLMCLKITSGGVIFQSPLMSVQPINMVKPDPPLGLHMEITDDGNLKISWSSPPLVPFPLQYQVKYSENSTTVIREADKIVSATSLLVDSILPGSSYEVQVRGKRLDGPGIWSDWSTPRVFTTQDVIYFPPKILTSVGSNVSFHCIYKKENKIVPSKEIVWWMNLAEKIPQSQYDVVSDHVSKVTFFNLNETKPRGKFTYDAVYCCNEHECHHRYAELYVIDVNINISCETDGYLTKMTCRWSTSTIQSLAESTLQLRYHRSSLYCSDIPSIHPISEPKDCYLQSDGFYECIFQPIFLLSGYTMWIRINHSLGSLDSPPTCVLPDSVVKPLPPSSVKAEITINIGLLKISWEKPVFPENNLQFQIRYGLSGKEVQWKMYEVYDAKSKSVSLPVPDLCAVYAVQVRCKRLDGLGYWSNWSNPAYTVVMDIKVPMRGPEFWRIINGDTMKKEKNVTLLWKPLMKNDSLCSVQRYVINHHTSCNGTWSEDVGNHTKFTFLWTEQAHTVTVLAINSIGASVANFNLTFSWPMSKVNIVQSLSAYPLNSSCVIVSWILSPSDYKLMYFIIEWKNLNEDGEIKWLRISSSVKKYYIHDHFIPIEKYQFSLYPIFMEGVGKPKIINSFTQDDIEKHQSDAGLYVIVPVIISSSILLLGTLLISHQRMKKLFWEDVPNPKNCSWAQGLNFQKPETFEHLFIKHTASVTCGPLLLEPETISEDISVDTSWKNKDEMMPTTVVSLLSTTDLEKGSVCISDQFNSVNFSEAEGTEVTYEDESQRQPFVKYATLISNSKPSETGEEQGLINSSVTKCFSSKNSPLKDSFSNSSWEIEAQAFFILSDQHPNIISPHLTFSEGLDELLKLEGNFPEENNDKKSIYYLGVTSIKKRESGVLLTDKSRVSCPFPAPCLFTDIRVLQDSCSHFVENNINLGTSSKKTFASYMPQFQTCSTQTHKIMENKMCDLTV
# UniProt Q9BRT6: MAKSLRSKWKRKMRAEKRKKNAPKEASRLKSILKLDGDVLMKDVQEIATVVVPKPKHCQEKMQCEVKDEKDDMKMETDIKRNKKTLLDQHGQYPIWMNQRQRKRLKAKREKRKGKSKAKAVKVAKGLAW
# The list shows a part of the results.
# Tests used:
# Assay in all cases: log2 fold change, soluble protein after heating vs DMSO (PISA); higher = thermal stabilisation; K562 cells, 10 uM, 30 min; active = over 0.2 and 3.5 SD of the protein, either way, in both replicates (recomputed)
# [1] = compound: COC1=CC=C(C=C1)CN2C=CC3=C2C=C(C=C3)C(=O)NO
# Outline: (§1)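 Soluble protein was defined as the supernatant after 21,000xg for 90 min. It came from K562 cells at 2×10^6 cells/mL given 10 μM compound for 30 min, heated in aliquots for 3 min across 48°C-58°C, pooled, and extracted in PBS with 0.5% NP-40 at 4°C, and was quantified by TMTpro 16plex LC-MS/MS with equalised channel sums. Thermal stability against control samples, from duplicates, is reported as log2 fold change.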
# filanesib = compound: CON(C)C(=O)N1N=C(c2cc(F)ccc2F)S[C@@]1(CCCN)c1ccccc1 [filanesib]
# Outline: as §1
# zotarolimus = compound: CO[C@H]1C[C@@H]2CC[C@@H](C)[C@@](O)(O2)C(=O)C(=O)N2CCCC[C@H]2C(=O)O[C@H]([C@H](C)C[C@@H]2CC[C@H](n3cnnn3)[C@H](OC)C2)CC(=O)[C@H](C)/C=C(\C)[C@@H](O)[C@@H](OC)C(=O)[C@H](C)C[C@H](C)/C=C/C=C/C=C/1C [zotarolimus]
# Outline: as §1
# idasanutlin = compound: COc1cc(C(=O)O)ccc1NC(=O)[C@@H]1N[C@@H](CC(C)(C)C)[C@](C#N)(c2ccc(Cl)cc2F)[C@H]1c1cccc(Cl)c1F [idasanutlin]
# Outline: as §1
# alisertib = compound: COc1cc(Nc2ncc3c(n2)-c2ccc(Cl)cc2C(c2c(F)cccc2OC)=NC3)ccc1C(=O)O [alisertib]
# Outline: as §1
# [2] = compound: COc1cc2nc(-c3cc(F)ccc3O)nc(N[C@@H]3CNC[C@H]3C(C)(C)O)c2cc1OC
# Outline: as §1
# gefitinib = compound: COc1cc2ncnc(Nc3ccc(F)c(Cl)c3)c2cc1OCCCN1CCOCC1 [gefitinib]
# Outline: as §1
# [3] = compound: COc1cccc2cc(-c3nc([C@H]4CC[C@H](C(=O)O)CC4)n4ncnc(N)c34)[nH]c12
# Outline: as §1
# lapatinib = compound: CS(=O)(=O)CCNCc1ccc(-c2ccc3ncnc(Nc4ccc(OCc5cccc(F)c5)c(Cl)c4)c3c2)o1 [lapatinib]
# Outline: as §1
# pictilisib = compound: CS(=O)(=O)N1CCN(Cc2cc3nc(-c4cccc5[nH]ncc45)nc(N4CCOCC4)c3s2)CC1 [pictilisib]
# Outline: as §1
Target,log2 fold change [1],log2 fold change (filanesib),log2 fold change (zotarolimus),log2 fold change (idasanutlin),log2 fold change (alisertib),log2 fold change [2],log2 fold change (gefitinib),log2 fold change [3],log2 fold change (lapatinib),log2 fold change (pictilisib)
LRRC57 (UniProt Q8N9N7),inactive: -0.003,inactive: -0.066,inactive: 0.02,inactive: -0.045,inactive: -0.021,inactive: 0.047,inactive: 0.015,inactive: 0.031,inactive: 0.011,inactive: 0.04
KYAT1 (UniProt Q16773),inactive: -0.062,inactive: -0.004,inactive: 0.006,inactive: -0.041,inactive: 0.039,inactive: 0.018,inactive: 0.005,inactive: 0.086,inactive: -0.007,inactive: -0.01
LONP1 (UniProt P36776),inactive: -0.006,inactive: -0.02,inactive: -0.017,inactive: -0.025,inactive: -0.049,inactive: 0.02,inactive: 0.004,inactive: 0.015,inactive: -0.038,inactive: 0.036
LAGE3 (UniProt Q14657),inactive: -0.083,inactive: -0.043,inactive: -0.016,inactive: -0.069,inactive: 0.097,inactive: 0.017,inactive: 0.037,inactive: -0.013,inactive: -0.047,inactive: 0.036
LDHB (UniProt P07195),inactive: -0.051,inactive: -0.027,inactive: -0.012,inactive: -0.036,inactive: -0.053,inactive: 0.008,inactive: 0.003,inactive: 0.12,inactive: -0.028,inactive: -0.033
LRRC40 (UniProt Q9H9A6),inactive: -0.017,inactive: -0.028,inactive: -0.026,inactive: -0.024,inactive: 0.074,inactive: 0.021,inactive: 0.013,inactive: -0.093,inactive: 0.01,inactive: -0.029
LIN28B (UniProt Q6ZN17),inactive: -0.04,inactive: 0.169,inactive: 0.017,inactive: 0.151,inactive: -0.087,inactive: -0.012,inactive: 0.025,inactive: 0.001,inactive: 0.043,inactive: 0.014
LARP4 isoform 4 (UniProt Q71RC2),inactive: 0.005,inactive: 0.111,inactive: -0.007,inactive: 0.071,inactive: -0.045,inactive: -0.159,inactive: 0.01,inactive: -0.125,inactive: 0.054,inactive: -0.068
LAMB1 (UniProt P07942),inactive: -0.013,inactive: 0.048,inactive: 0.028,inactive: 0.001,inactive: -0.012,inactive: -0.044,inactive: 0.018,inactive: 0.027,inactive: 0.009,inactive: 0
LAMTOR5 (UniProt O43504),inactive: 0.053,inactive: 0.093,inactive: 0.263,inactive: -0.033,inactive: -0.073,inactive: -0.145,inactive: 0.043,inactive: -0.129,inactive: -0.015,inactive: -0.323
LDB1 (UniProt Q86U70),inactive: -0.057,inactive: 0.043,inactive: -0.032,inactive: 0,inactive: -0.111,inactive: -0.044,inactive: -0.008,inactive: 0.051,inactive: -0.034,inactive: 0.024
LGALS1 (UniProt P09382),inactive: 0.014,inactive: -0.055,inactive: 0.024,inactive: -0.004,inactive: -0.054,inactive: 0.046,inactive: -0.028,inactive: 0.03,inactive: -0.035,inactive: -0.034
LNPK (UniProt Q9C0E8),inactive: 0.007,inactive: -0.005,inactive: -0.049,inactive: -0.002,inactive: -0.034,inactive: 0.001,inactive: 0.025,inactive: 0.079,inactive: -0.008,inactive: 0.017
LRIG2 (UniProt O94898),inactive: -0.004,inactive: 0.074,inactive: -0.075,inactive: 0.064,inactive: -0.047,inactive: 0.002,inactive: -0.001,inactive: 0.044,inactive: 0.034,inactive: 0.054
LEO1 (UniProt Q8WVC0),inactive: -0.038,inactive: 0.021,inactive: 0.175,inactive: 0.023,inactive: -0.08,inactive: -0.035,inactive: 0.009,inactive: -0.034,inactive: -0.032,inactive: 0.009
LMO2 isoform 3 (UniProt P25791),inactive: 0.038,inactive: -0.019,inactive: 0.192,inactive: 0.048,inactive: -0.054,inactive: 0.053,inactive: -0.034,inactive: -0.041,inactive: 0.008,inactive: 0.046
LDHA isoform 3 (UniProt P00338),inactive: 0.005,inactive: -0.041,inactive: -0.018,inactive: -0.018,inactive: -0.049,inactive: -0.003,inactive: -0.013,inactive: 0.043,inactive: -0.007,inactive: 0.029
LMNB1 (UniProt P20700),inactive: -0.034,inactive: 0.131,inactive: 0.053,inactive: 0.14,inactive: -0.075,inactive: -0.09,inactive: -0.002,inactive: 0.064,inactive: 0.087,inactive: 0.005
LDAH isoform 2 (UniProt Q9H6V9),inactive: 0.06,inactive: -0.137,inactive: 0.057,inactive: -0.185,inactive: -0.041,active: -0.517,inactive: 0.004,inactive: 0.032,inactive: -0.005,inactive: 0.075
LIMA1 isoform 4 (UniProt Q9UHB6),inactive: -0.044,inactive: 0.178,inactive: 0.021,inactive: 0.008,inactive: -0.028,inactive: 0.171,inactive: 0.077,inactive: 0.11,inactive: -0.126,inactive: -0.1
LRPAP1 (UniProt P30533),inactive: -0.076,inactive: -0.002,inactive: 0.018,inactive: 0.039,inactive: 0.045,inactive: 0.047,inactive: 0.05,inactive: -0.027,inactive: 0.01,inactive: 0.004
LIN7C (UniProt Q9NUP9),inactive: -0.143,inactive: 0.041,inactive: -0.019,inactive: 0.009,inactive: -0.1,inactive: 0.017,inactive: 0.073,inactive: 0.016,inactive: 0.013,inactive: 0.012
LAMP2 (UniProt P13473),inactive: -0.125,inactive: -0.058,inactive: -0.022,inactive: -0.005,inactive: -0.006,inactive: -0.012,inactive: 0.005,inactive: 0.084,inactive: -0.079,inactive: 0.046
LIMS1 isoform 3 (UniProt P48059),inactive: 0.046,inactive: -0.01,inactive: 0.007,inactive: -0.007,inactive: -0.019,inactive: 0.007,inactive: -0.022,inactive: -0.023,inactive: -0.017,inactive: 0.038
LPCAT1 (UniProt Q8NF37),inactive: -0.026,inactive: -0.107,inactive: 0.01,inactive: -0.055,inactive: -0.04,inactive: -0.018,inactive: 0.039,inactive: 0.093,inactive: -0.001,inactive: -0.01
L3HYPDH (UniProt Q96EM0),inactive: 0.022,inactive: -0.116,inactive: 0.037,inactive: -0.136,inactive: 0.024,inactive: -0.04,inactive: 0.041,inactive: 0.025,inactive: 0.062,inactive: 0.032
LAP3 (UniProt P28838),inactive: 0.021,inactive: -0.042,inactive: 0,inactive: -0.05,inactive: -0.031,inactive: -0.019,inactive: 0.007,inactive: 0.074,inactive: 0.023,inactive: 0.014
LEPR (UniProt P48357),inactive: -0.041,inactive: 0.01,inactive: 0.007,inactive: 0.03,inactive: 0.114,inactive: 0.038,inactive: -0.041,inactive: 0.022,inactive: 0.03,inactive: 0.022
LLPH (UniProt Q9BRT6),inactive: -0.179,inactive: 0.514,inactive: 0.044,inactive: 0.232,inactive: -0.048,inactive: -0.126,inactive: -0.135,inactive: -0.128,inactive: 0.021,inactive: -0.24

# Fetched one by one from the list above (two):
Target,log2 fold change [1],log2 fold change (filanesib),log2 fold change (zotarolimus),log2 fold change (idasanutlin),log2 fold change (alisertib),log2 fold change [2],log2 fold change (gefitinib),log2 fold change [3],log2 fold change (lapatinib),log2 fold change (pictilisib)
KYAT1 (UniProt Q16773),inactive: -0.062,inactive: -0.004,inactive: 0.006,inactive: -0.041,inactive: 0.039,inactive: 0.018,inactive: 0.005,inactive: 0.086,inactive: -0.007,inactive: -0.01
LAMB1 (UniProt P07942),inactive: -0.013,inactive: 0.048,inactive: 0.028,inactive: 0.001,inactive: -0.012,inactive: -0.044,inactive: 0.018,inactive: 0.027,inactive: 0.009,inactive: 0
